Results from PMC7816512.
Results are given in words; binding and its absence hold for the method and conditions named. In cells and extracts the contact can be indirect. Some entries that bind do so weakly or less than the wild type. Sequences can lack the tags named with a protein.

Target: T1, Rbm10-TAP (S. pombe) (UniProt P87143)
T1 sequence: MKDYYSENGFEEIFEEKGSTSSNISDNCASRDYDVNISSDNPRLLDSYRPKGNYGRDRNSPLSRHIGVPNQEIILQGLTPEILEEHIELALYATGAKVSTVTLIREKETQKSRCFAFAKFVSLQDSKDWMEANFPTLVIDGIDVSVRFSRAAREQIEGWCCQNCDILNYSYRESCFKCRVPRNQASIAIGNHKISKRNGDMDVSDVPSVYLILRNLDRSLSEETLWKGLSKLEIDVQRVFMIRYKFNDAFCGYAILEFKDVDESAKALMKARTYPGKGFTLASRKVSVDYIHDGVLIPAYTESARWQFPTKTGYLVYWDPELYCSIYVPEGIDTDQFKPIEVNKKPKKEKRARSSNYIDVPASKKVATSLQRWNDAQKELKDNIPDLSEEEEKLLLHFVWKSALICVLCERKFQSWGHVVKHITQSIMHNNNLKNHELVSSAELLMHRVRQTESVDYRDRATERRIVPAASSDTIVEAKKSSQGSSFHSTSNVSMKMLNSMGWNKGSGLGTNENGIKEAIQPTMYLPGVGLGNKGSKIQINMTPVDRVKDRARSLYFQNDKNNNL
Test: co-IP; lysates of S. pombe cells expressing Alp13-GFP and Rbm10-TAP from their own promoters; IgG sepharose, 4 °C, 2 h; Western blot with anti-GFP; cells with Alp13-GFP alone as control

binding: binds
B1: Alp13-GFP (protein, UniProt O13953 1-337)
chain: MAVSYKVNERVLCFHGPLLYEAKIVDTEMKGDVTTYLIHYKGWKNSWDEWVEQDRILQWTEENLKTQKELKNAAISTRQKPTSKKSASSTSKHDSTGVKTSGKRSRESSTVTVDGDSHELPSRIKTQKSESPIPQQVKRDGTTDAKNEETTKPENNEKDDFEEEPPLPKHKISVPDVLKLWLVDDWENITKNQQLIAIPRNPTVRAAIAAFRESKISHLNNEIDVDVFEQAMAGLVIYFNKCLGNMLLYRFERQQYLEIRQQYPDTEMCDLYGVEHLIRLFVSLPELIDRTNMDSQSIECLLNYIEEFLKYLVLHKDEYFIKEYQNAPPNYRSLVGV
